The list shows a part of the results. Many values rest on one well or one pass, so single values are uncertain.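 The apoptosis fraction was the count of cleaved-PARP antibody-stained nuclei relative to all DNA-stained nuclei, imaged in 1,536-well plates. Screening doses were set so most cells survived, and baseline and induced cleaved-PARP levels vary greatly across cell lines.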
test system: CBRC017 (line from a melanoma biopsy); experiment: cleaved PARP positive nuclei fraction relative to DMSO control; melanoma cells; higher = more apoptosis; settings: library dose: low library concentration; 72 h

Compound	cleaved PARP positive nuclei fraction
Cc1cc(Nc2cc(N3CCN(C)CC3)nc(/C=C/c3ccccc3)n2)n[nH]1 + C#Cc1cccc(Nc2ncnc3cc(OCCOC)c(OCCOC)cc23)c1 [erlotinib] (first compound 0.04 µM, partner dose 0.8 µM)	148%
Nc1ccn([C@@H]2O[C@H](CO)[C@@H](O)C2(F)F)c(=O)n1 [gemcitabine] + COc1ccc(Cl)c(Nc2nc3ccccc3nc2NS(=O)(=O)c2cccc(NC(=O)C(C)(C)N)c2)c1 [XL147] (first compound 0.0004 µM, partner dose 0.8 µM)	127%
Cc1cc(Nc2cc(N3CCN(C)CC3)nc(/C=C/c3ccccc3)n2)n[nH]1 + CNC(=O)c1cc(Oc2ccc(NC(=O)Nc3ccc(Cl)c(C(F)(F)F)c3)cc2)ccn1 [sorafenib] (first compound 0.04 µM, partner dose 0.4 µM)	102%
O=C(O)c1ccc2c(c1)nc(Nc1cccc(Cl)c1)c1ccncc12 + Nc1nc(F)nc2c1ncn2[C@@H]1O[C@H](CO)[C@@H](O)[C@@H]1O [fludarabine] (first compound 0.4 µM, partner dose 0.2 µM)	272%
O=C(O)c1ccc2c(c1)nc(Nc1cccc(Cl)c1)c1ccncc12 + Nc1cccc2c1CN(C1CCC(=O)NC1=O)C2=O [lenalidomide] (first compound 0.4 µM, partner dose 1 µM)	167%
Nc1ncn([C@H]2C[C@H](O)[C@@H](CO)O2)c(=O)n1 [decitabine] + OCc1c[nH]c2ccccc12 [Indole-3-carbinol] (first compound 0.1 µM, partner dose 0.8 µM)	87.4%

From the supplement of paper PMC4604168 (melanoma cell lines)
